No constants are given. Whether binding was seen depends on the method and setting. For part of these data: In cells and extracts the contact can be indirect. Some entries that bind do so weakly or less than the wild type. One block for each substance: values may come before it.
What was measured:
[1] = molecular target: GST-RNF2 (UniProt Q99496); experiment: pull-down; GST or GST-RNF2 coupled to GSH-Sepharose beads, incubated with purified His-SIK1; washed five times; SDS-PAGE and blot; both purified
[2] = molecular target: RNF2, endogenous (human (endogenous in HCC cells)) (UniProt Q99496); experiment: co-IP; HCC cell lysates in RIPA buffer with protease inhibitors, pre-cleared with protein-A/G sepharose; 2 ug anti-SIK1 or anti-RNF2 antibody with protein-G sepharose, 4 °C overnight; normal IgG as negative control; western blot
[3] = molecular target: Salt-inducible kinase 1 (SIK1), endogenous (human (endogenous in HCC cells)) (UniProt P57059); experiment: as above

Sequences of proteins named here, by UniProt entry; tags and fusion partners are left off.
UniProt Q99496: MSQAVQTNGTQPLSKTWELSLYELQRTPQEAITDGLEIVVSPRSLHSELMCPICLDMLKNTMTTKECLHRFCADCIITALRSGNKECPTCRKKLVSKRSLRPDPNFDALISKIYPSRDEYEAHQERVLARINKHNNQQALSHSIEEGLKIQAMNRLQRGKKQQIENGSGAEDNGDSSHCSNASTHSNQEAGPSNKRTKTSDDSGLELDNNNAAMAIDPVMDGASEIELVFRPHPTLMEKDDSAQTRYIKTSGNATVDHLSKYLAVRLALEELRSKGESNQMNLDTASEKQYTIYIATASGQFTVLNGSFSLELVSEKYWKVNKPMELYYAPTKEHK
UniProt P57059: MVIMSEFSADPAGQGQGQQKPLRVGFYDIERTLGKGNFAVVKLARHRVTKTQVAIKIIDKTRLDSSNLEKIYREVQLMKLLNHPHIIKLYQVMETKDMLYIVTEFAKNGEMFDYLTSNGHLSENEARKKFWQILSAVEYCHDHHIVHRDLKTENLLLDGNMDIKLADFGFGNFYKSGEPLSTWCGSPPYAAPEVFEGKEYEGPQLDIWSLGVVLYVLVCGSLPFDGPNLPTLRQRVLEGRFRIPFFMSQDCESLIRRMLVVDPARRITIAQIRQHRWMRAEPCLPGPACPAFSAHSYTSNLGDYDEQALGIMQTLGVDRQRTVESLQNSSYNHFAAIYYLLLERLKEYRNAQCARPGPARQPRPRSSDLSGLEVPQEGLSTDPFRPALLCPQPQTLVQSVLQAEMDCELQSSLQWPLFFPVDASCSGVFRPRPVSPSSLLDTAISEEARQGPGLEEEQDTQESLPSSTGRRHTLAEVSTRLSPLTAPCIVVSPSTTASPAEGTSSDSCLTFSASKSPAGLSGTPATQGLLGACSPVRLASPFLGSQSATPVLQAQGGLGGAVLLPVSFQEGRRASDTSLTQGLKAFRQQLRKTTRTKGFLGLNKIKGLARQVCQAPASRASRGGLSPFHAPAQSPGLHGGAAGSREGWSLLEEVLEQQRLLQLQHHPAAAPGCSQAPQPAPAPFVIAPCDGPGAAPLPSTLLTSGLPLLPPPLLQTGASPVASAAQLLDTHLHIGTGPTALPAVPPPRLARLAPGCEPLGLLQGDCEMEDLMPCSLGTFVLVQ

binding [1]: binds
Substance: His-SIK1 (from UniProt P57059 1-783)

binding [2]: binds
Substance: Salt-inducible kinase 1 (SIK1), endogenous (from UniProt P57059 1-783)

binding [3]: binds
Substance: RNF2, endogenous (from UniProt Q99496 1-336)
